These are yes or no findings as the source states them, for the method shown. Binding seen in cells or lysates may run through a third protein. A result given as binding can be weak or reduced; the word gives no strength. Tags and fused reporters may be left off the sequences shown.
Biological target: AthBG2 fused to the N-terminal half of EYFP (BiFC construct) (A. thaliana)
Assay: split reporter; BiFC with nEYFP(1-174) and cEYFP(175-end) fusions cotransformed in onion peel by gene gun; 22°C in darkness for 24 h; confocal microscopy

- binding: binds
B1: Y14 fused to the C-terminal half of EYFP (BiFC construct) (protein, UniProt F4I9J7 1-202)
chain: MANIESEAVDFEPEEDDLMDEEGTAIDGADVSPRAGHPRLKSAIAGANGESAKKTKGRGFREEKDSDRQRRLSSRDFESLGSDGRPGPQRSVEGWIILVSGVHEETQEEDITNAFGDFGEIKNLNLNLDRRSGYVKGYALIEYEKKEEAQSAISAMNGAELLTQNVSVDWAFSSGPSGGESYRRKNSRYGRSQRSRSPRRRY

From article PMC5660992
